Measurements as given in PubChem BioAssay AID248 (DTP/NCI, 2004).
The list does not hold the whole screen: it is rich in T/C values a quarter to a half above the control, in often repeated tests (any T/C) and in doses without a T/C. Other doses and runs of a compound stand elsewhere. T/C: endpoint of the treated group in % of that of the vehicle group. Some entries give survivors of the animals treated and no T/C: the source files T/C as zero there, which appears to mark a toxic dose or a test without result, not a measured value. Some doses without a T/C left all or most animals alive at the check, yet need not have been tolerated: the source hardly ever lists a survival T/C far under the control, and the zero likely stands for such cases as well. Survivors were counted at the toxicity check, usually on the fifth day, unless a day is given; later deaths do not show. Schedule codes are those of the source, read here as Q, the interval in days (D) or hours (H), X, the number of doses. Some schedule codes hold Z or #, which are not explained here. For survival time, this PubChem deposit counts one and a half times the control or more as active, and values a quarter to a half above the control carry no call in these data; other NCI protocols may use other cut-offs. Some T/C values are followed by the survivors on the day toxicity was checked, most often the fifth; where none is given, no animal had died by that day.

System: L1210 leukemia ip in BDF1 mice, survival T/C
Assay: NCI In Vivo Anticancer Drug Screen. Data for tumor model L1210 Leukemia (intraperitoneal) in B6D2F1 (BDF1) mice
Conditions: T/C endpoint: mean survival time, higher T/C = longer survival
[1] = dose: 200.0 mg/kg/injection, schedule: Q01DX001 (ip), vehicle: other
[2] = dose: 400.0 mg/kg/injection, schedule: Q01DX001 (ip), vehicle: other
[3] = dose: 300.0 mg/kg/injection, schedule: Q01DX001 (ip), vehicle: other
[4] = dose: 400.0 mg/kg/injection, schedule: Q04DX003 (ip), vehicle: Klucel (hydroxypropylcellulose) (HPC)

With `NC(=O)c1cc(Cl)nc(Cl)n1` the survivor count (dose: 100.0 mg/kg/injection, schedule: Q01DX Z (ip), vehicle: methylcellulose (MC)) was 3 of 6 and the survivor count (dose: 200.0 mg/kg/injection, schedule: Q01DX Z (ip), vehicle: methylcellulose (MC)) was 2 of 6.

For `ClCc1c2ccccc2cc2ccccc12`, the survivor count (dose: 25.0 mg/kg/injection, schedule: Q04DX002 (ip), vehicle: saline with Tween-80) was 3 of 3, the survivor count (dose: 100.0 mg/kg/injection, schedule: Q04DX002 (ip), vehicle: saline with Tween-80) was 3 of 3 and the survivor count (dose: 200.0 mg/kg/injection, schedule: Q04DX002 (ip), vehicle: saline with Tween-80) was 0 of 3. The survivor count (dose: 400.0 mg/kg/injection, schedule: Q04DX002 (ip), vehicle: saline with Tween-80) was 0 of 3.

For `Cc1ccc(NC(=O)N(CCCl)N=O)c(C)c1`, the T/C (dose: 12.5 mg/kg/injection, schedule: Q01DX001 (ip), vehicle: other) was 136 % of control, the T/C (dose: 36.0 mg/kg/injection, schedule: Q01DX009 (ip), vehicle: other) was 126 % of control [5 of 6 alive] and the survivor count (dose: 100.0 mg/kg/injection, schedule: Q01DX001 (ip), vehicle: other) was 6 of 6. The survivor count [1] was 1 of 6 and the survivor count [2] was 0 of 6.

For `O=[N+]([O-])c1cccc(N=Nc2ccc(O)cc2)c1`, the survivor count (dose: 300.0 mg/kg/injection, schedule: Q01DX009 (ip), vehicle: Klucel (hydroxypropylcellulose) (HPC)) was 0 of 6 and the survivor count (dose: 400.0 mg/kg/injection, schedule: Q01DX009 (ip), vehicle: Klucel (hydroxypropylcellulose) (HPC)) was 1 of 6.

`CNc1ncnc2c1ccn2C1OC(CO)C(O)C1O` (centres undefined) was tested, and the survivor count (dose: 100.0 mg/kg/injection, schedule: Q01DX001 (ip), vehicle: carboxymethylcellulose (CMC)) was 1 of 4, the survivor count (dose: 200.0 mg/kg/injection, schedule: Q01DX001 (ip), vehicle: carboxymethylcellulose (CMC)) was 0 of 4 and the survivor count (dose: 400.0 mg/kg/injection, schedule: Q01DX001 (ip), vehicle: carboxymethylcellulose (CMC)) was 1 of 4.

In the case of `O=C1CC(c2ccc(Br)cc2)N(c2ccc([As](=O)(O)O)cc2)C1=O` (centres undefined), the survivor count (dose: 100.0 mg/kg/injection, schedule: Q04DX003 (ip), vehicle: saline with Tween-80) is reported as 0 of 6, the survivor count (dose: 200.0 mg/kg/injection, schedule: Q04DX003 (ip), vehicle: saline with Tween-80) is reported as 0 of 6 and the survivor count (dose: 400.0 mg/kg/injection, schedule: Q04DX003 (ip), vehicle: saline with Tween-80) is reported as 0 of 6.

In the case of `O=C1OCC2C1C1CCC2C1(Cl)Cl` (centres undefined), the survivor count (dose: 150.0 mg/kg/injection, schedule: Q01DX001 (ip), vehicle: other) is reported as 2 of 6 and the survivor count [3] is reported as 0 of 6.

In the case of `O=C(CC(O)c1ccccc1)Nc1cccnc1` (centres undefined), the survivor count [1] is reported as 0 of 4 and the survivor count [2] is reported as 0 of 4.

With `Cc1cn(C2OC(CO)C(O)C2O)c(=O)[nH]c1=O` (centres undefined) the survivor count (dose: 15.0 mg/kg/injection, schedule: Q01DX Z (ip), vehicle: saline) was 6 of 6.

In the case of `COc1cc(/C=N/N=C(N)N)ccc1O`, the survivor count (dose: 480.0 mg/kg/injection, schedule: Q01DX Z (ip), vehicle: saline) is reported as 0 of 6.

With `CCOC(=O)CNC(=O)C1OC(n2cnc3c(N)ncnc32)C(O)C1O` (centres undefined) the survivor count (dose: 25.0 mg/kg/injection, schedule: Q01DX009 (ip), vehicle: saline) was 2 of 6, the survivor count (dose: 50.0 mg/kg/injection, schedule: Q01DX005 (ip), vehicle: saline) was 0 of 6 and the survivor count (dose: 100.0 mg/kg/injection, schedule: Q01DX005 (ip), vehicle: saline) was 0 of 6. The survivor count (dose: 200.0 mg/kg/injection, schedule: Q01DX005 (ip), vehicle: saline) was 0 of 6.

For `O=[N+]([O-])c1cccs1`, the survivor count (dose: 200.0 mg/kg/injection, schedule: Q01DX009 (ip), vehicle: Klucel (hydroxypropylcellulose) (HPC)) was 6 of 6 and the survivor count (dose: 400.0 mg/kg/injection, schedule: Q04DX003 (ip), vehicle: other) was 0 of 6.

In the case of `CCCCNC(=S)N/N=C/c1ccccn1`, the survivor count [4] is reported as 1 of 3.

For `OC(CI)C(O)CI` (centres undefined), the survivor count (dose: 75.0 mg/kg/injection, schedule: Q01DX001 (ip), vehicle: other) was 6 of 6 and the survivor count [3] was 0 of 6.

`O=C(Nc1cccc(Cl)c1)OCC#CCN1CCCC1` was tested, and the T/C (dose: 20.0 mg/kg/injection, schedule: Q01DX001 (ip), vehicle: saline) was 126 % of control.

`Cc1cc(=O)c2c(C)cccc2[nH]1` was tested, and the survivor count (dose: 12.5 mg/kg/injection, schedule: Q04DX003 (ip), vehicle: saline with Tween-80) was 6 of 6, the survivor count (dose: 100.0 mg/kg/injection, schedule: Q04DX003 (ip), vehicle: Klucel (hydroxypropylcellulose) (HPC)) was 6 of 6 and the survivor count (dose: 200.0 mg/kg/injection, schedule: Q04DX003 (ip), vehicle: Klucel (hydroxypropylcellulose) (HPC)) was 3 of 6. For the same compound, the survivor count [4] was 0 of 6.
